Where a name gives a salt, the structure may show the parent alone. Some of the results follow. Most values come without repeats; read them as rough.
Tested on: Echinococcus multilocularis metacestodes
Experiment: vesicle damage (PGI release) relative to positive control DB1127 at 20 µM, DMSO subtracted; higher = more parasite damage
Settings: treatment time 5 days

| SMILES | vesicle damage |
| --- | --- |
| C[C@H]1COc2c(N3CCN(C)CC3)c(F)cc3c(=O)c(C(=O)O)cn1c23 [Levofloxacin] | -6.02% |
| O=C1Cc2cc(CCN3CCN(c4nsc5ccccc45)CC3)c(Cl)cc2N1 [Ziprasidone hydrochloride] | 4.36% |
| NC12CC3CC(CC(C3)C1)C2 [Amantadine hydrochloride] | 0.831% |
| Nc1ccc(O)c(C(=O)O)c1 [Mesalamine] | -2.69% |
| C#Cc1cccc(Nc2ncnc3cc(OCCOC)c(OCCOC)cc23)c1 [Erlotinib HCl] | -4.28% |
| Cc1onc(-c2ccccc2Cl)c1C(=O)N[C@@H]1C(=O)N2[C@@H]1SC(C)(C)[C@@H]2C(=O)O [Cloxacillin sodium] | 2.6% |
| CCc1c2c(nc3ccc(OC(=O)N4CCC(N5CCCCC5)CC4)cc13)-c1cc3c(c(=O)n1C2)COC(=O)[C@]3(O)CC [Irinotecan] | 2.49% |
| C[C@]12C=CC(=O)C=C1CC[C@@H]1[C@@H]2C(=O)C[C@@]2(C)[C@H]1CC[C@]2(O)C(=O)CO [Prednisone] | -3.53% |
| COc1ccc2cccc(CCNC(C)=O)c2c1 [Agomelatine] | 0.123% |
| C[C@]12CC[C@@H]3c4ccc(O)cc4CC[C@H]3[C@@H]1CCC2=O [Estrone] | 0.898% |
| Oc1ccc(OCc2ccccc2)cc1 [Monobenzone] | -1.09% |
| CN[C@@H]1[C@H](O)[C@H](NC)[C@H]2O[C@@]3(O)C(=O)C[C@@H](C)O[C@H]3O[C@@H]2[C@H]1O [Spectinomycin  hcl] | 1.04% |
| CC[C@@H]([C@H](C)O)n1ncn(-c2ccc(N3CCN(c4ccc(OC[C@@H]5CO[C@@](Cn6cncn6)(c6ccc(F)cc6F)C5)cc4)CC3)cc2)c1=O [Posaconazole] | -0.58% |
| O=C1[C@H](CC[C@H](O)c2ccc(F)cc2)[C@@H](c2ccc(O)cc2)N1c1ccc(F)cc1 [Ezetimibe] | -2.19% |
| Nc1ccn([C@@H]2CS[C@H](CO)O2)c(=O)n1 [Lamivudine] | -0.661% |
| C[C@H]1C[C@@H]2[C@H]([C@@H](O)C[C@@]3(C)[C@H]2CC[C@]3(O)C(=O)CO)[C@@]2(C)C=CC(=O)C=C12 [Methylprednisolone] | -11% |
| O=c1[nH]cc(F)c(=O)[nH]1 [Adrucil] | -0.561% |
| Nc1ccc(S(=O)(=O)Nc2ncccn2)cc1 [Sulfadiazine] | -12.2% |
| CCOC(=O)O[C@]1(C(=O)OCCl)CC[C@H]2[C@@H]3CCC4=CC(=O)C=C[C@]4(C)[C@H]3[C@@H](O)C[C@@]21C [Loteprednol Etabonate] | -1.1% |
| CN(C)[C@@H](CCOc1cccc2ccccc12)c1ccccc1 [Dapoxetine hydrochloride] | -11.2% |

| SMILES | vesicle damage |
| --- | --- |
| COc1cc([C@@H]2c3cc4c(cc3[C@@H](O[C@@H]3O[C@@H]5CO[C@@H](c6cccs6)O[C@H]5[C@H](O)[C@H]3O)[C@H]3COC(=O)[C@H]23)OCO4)cc(OC)c1O [Teniposide] | -13.6% |
| COCCOC(=O)C1=C(C)NC(C)=C(C(=O)OC(C)C)C1c1cccc([N+](=O)[O-])c1 (centres undefined) [Nimodipine] | -12.8% |
| COc1cc2c(cc1Cc1cccc(Cl)c1F)c(=O)c(C(=O)O)cn2[C@H](CO)C(C)C [Elvitegravir] | 5.66% |
| CN1CCN(c2c(F)cc3c(=O)c(C(=O)O)cn(CCF)c3c2F)CC1 [Fleroxacin] | 0.993% |
| CC1COc2c(N3CCN(C)CC3)c(F)cc3c(=O)c(C(=O)O)cn1c23 (centres undefined) [Ofloxacin] | -3.49% |
| CNC(=C[N+](=O)[O-])NCCSCc1ccc(CN(C)C)o1 [Ranitidine Hydrochloride] | -14% |
| CCC1=C[C@@H]2CN(C1)Cc1c([nH]c3ccccc13)[C@@](C(=O)OC)(c1cc3c(cc1OC)N(C)[C@H]1[C@@](O)(C(=O)OC)[C@H](OC(C)=O)[C@]4(CC)C=CCN5CC[C@]31[C@@H]54)C2 [Vinorelbine] | 9.59% |
| CN(C)C(=N)NC(=N)N [Metformin hydrochloride] | -9.38% |
| Nc1cc(C(Cl)=C(Cl)Cl)c(S(N)(=O)=O)cc1S(N)(=O)=O [Clorsulon] | 6.5% |
| Cc1noc(NS(=O)(=O)c2ccc(N)cc2)c1C [Sulfisoxazole] | -7.41% |
| O=c1[nH]c(=O)n([C@H]2C[C@H](O)[C@@H](CO)O2)cc1C(F)(F)F [Trifluridine] | -13.4% |
| CCCC(=O)[O-].[Na+] [Sodium butyrate] | -9.66% |
| NC(=O)c1ncn([C@@H]2O[C@H](CO)[C@@H](O)[C@H]2O)n1 [Ribavirin] | 1.09% |
| COc1c(C)c2c(c(O)c1C/C=C(\C)CCC(=O)O)C(=O)OC2 [Mycophenolic acid] | 1.82% |
| COc1ccccc1N1CCN(CC(O)COc2cccc3ccccc23)CC1 (centres undefined) [Naftopidil] | 0.769% |
| CN1CCN2c3ccccc3Cc3ccccc3C2C1 (centres undefined) [Mianserin hydrochloride] | -8.85% |
| O=P(O)(O)C(O)(Cc1cccnc1)P(=O)(O)O [Risedronate sodium] | -4.26% |
| CN1CCCC(n2nc(Cc3ccc(Cl)cc3)c3ccccc3c2=O)CC1 (centres undefined) [Azelastine hydrochloride] | 4.71% |
| C[C@H](CCC(=O)O)[C@H]1CC[C@H]2[C@@H]3[C@@H](O)C[C@@H]4C[C@H](O)CC[C@]4(C)[C@H]3CC[C@]12C [Ursodiol] | -3.52% |

Three entries from above, with each value named.
CC1COc2c(N3CCN(C)CC3)c(F)cc3c(=O)c(C(=O)O)cn1c23 (centres undefined) [Ofloxacin]
  vesicle damage: -3.49%
Nc1cc(C(Cl)=C(Cl)Cl)c(S(N)(=O)=O)cc1S(N)(=O)=O [Clorsulon]
  vesicle damage: 6.5%
CN1CCN2c3ccccc3Cc3ccccc3C2C1 (centres undefined) [Mianserin hydrochloride]
  vesicle damage: -8.85%
